Measured values taken from article doi:10.1101/456418.
Results are given in words; binding and its absence hold for the method and conditions named. Binding seen in cells or lysates may run through a third protein. Here binding means that the protein was enriched with, or labelled near, the bait; the list need not be complete. For some of these results: Where a sequence is shown, tags or fusion partners need not be part of it.

T1: KPAP1 fusion with BirA* biotin ligase (Trypanosoma brucei) (UniProt B3FB38)
T1 sequence: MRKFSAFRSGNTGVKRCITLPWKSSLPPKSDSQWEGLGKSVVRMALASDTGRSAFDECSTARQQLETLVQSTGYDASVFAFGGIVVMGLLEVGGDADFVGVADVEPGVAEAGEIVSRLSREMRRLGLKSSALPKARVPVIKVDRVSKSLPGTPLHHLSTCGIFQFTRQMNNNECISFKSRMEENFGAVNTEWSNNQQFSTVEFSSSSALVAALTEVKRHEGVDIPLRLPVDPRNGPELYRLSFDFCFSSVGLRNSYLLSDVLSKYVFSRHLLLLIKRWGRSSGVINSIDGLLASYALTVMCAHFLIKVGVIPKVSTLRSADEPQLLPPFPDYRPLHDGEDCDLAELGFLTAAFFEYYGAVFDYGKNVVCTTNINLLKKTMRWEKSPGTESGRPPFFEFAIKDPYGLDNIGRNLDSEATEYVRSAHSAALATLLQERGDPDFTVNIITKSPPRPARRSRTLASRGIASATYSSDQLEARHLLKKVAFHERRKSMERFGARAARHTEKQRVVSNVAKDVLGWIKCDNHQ

T2: KPAP1 poly(A) polymerase, TAP-tagged (Trypanosoma brucei) (UniProt B3FB38)
T2 sequence: T1 sequence

T3: GRBC2 fusion with BirA* biotin ligase (Trypanosoma brucei) (UniProt B6SBL9)
T3 sequence: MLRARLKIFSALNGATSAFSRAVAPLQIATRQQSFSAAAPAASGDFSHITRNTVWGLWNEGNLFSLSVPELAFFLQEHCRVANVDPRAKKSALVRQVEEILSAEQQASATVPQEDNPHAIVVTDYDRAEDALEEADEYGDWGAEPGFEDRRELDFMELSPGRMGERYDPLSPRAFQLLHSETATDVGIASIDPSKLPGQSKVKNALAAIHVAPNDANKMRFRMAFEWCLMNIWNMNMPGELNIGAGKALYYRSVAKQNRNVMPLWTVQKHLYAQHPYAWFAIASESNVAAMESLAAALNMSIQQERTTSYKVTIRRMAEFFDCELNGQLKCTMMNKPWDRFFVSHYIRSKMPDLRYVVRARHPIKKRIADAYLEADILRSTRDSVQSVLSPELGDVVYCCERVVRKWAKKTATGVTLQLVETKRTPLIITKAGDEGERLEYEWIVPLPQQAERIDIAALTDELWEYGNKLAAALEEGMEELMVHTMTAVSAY

T4: MERS1 fusion with BirA* biotin ligase (Trypanosoma brucei) (UniProt B6SBM0)
T4 sequence: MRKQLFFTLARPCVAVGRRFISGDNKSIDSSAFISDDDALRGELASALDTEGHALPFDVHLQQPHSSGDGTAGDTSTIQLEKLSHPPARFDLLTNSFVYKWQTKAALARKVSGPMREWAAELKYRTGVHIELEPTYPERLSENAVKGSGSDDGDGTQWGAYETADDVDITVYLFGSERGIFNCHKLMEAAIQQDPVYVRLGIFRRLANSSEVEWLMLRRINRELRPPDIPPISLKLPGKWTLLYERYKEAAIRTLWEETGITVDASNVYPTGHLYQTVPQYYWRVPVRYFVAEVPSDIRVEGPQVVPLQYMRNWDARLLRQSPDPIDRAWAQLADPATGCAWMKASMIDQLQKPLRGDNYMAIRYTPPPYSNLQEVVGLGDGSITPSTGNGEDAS

B1: KPAP1 poly(A) polymerase (enzyme, UniProt B3FB38 1-527)
chain: T1 sequence

Experiments:
[1] = target: T1, KPAP1 fusion with BirA* biotin ligase (Trypanosoma brucei); assay: proximity labelling
[2] = target: T2, KPAP1 poly(A) polymerase, TAP-tagged (Trypanosoma brucei); assay: affinity purification with mass spectrometry
[3] = target: T3, GRBC2 fusion with BirA* biotin ligase (Trypanosoma brucei); assay: proximity labelling
[4] = target: T4, MERS1 fusion with BirA* biotin ligase (Trypanosoma brucei); assay: proximity labelling
[5] = target: Kinetoplast Polyadenylation Factor 4, C-terminally TAP-tagged (Trypanosoma brucei); assay: affinity purification with mass spectrometry

Row | Molecule | binding [1] | binding [2] | other results
1 | subunit P3 of the polyadenylation mediator module (PAMC) | binds | – | –
2 | Kinetoplast Polyadenylation Factor 3 | – | binds | –
3 | MRP2 (MRP1/2 RNA chaperone) | binds | – | binding [3]: binds; binding [4]: binds
4 | subunit P4 of the polyadenylation mediator module (PAMC) | binds | – | –
5 | KPAF2 polyadenylation factor | binds | binds | –
6 | KPAF1 polyadenylation factor | – | binds | –
7 | B1 | – | – | binding [5]: binds
